From paper PMC8082834 come the findings set out here.

Chains of the proteins cited; added tags and fusions are not shown.
UniProt Q3URK3: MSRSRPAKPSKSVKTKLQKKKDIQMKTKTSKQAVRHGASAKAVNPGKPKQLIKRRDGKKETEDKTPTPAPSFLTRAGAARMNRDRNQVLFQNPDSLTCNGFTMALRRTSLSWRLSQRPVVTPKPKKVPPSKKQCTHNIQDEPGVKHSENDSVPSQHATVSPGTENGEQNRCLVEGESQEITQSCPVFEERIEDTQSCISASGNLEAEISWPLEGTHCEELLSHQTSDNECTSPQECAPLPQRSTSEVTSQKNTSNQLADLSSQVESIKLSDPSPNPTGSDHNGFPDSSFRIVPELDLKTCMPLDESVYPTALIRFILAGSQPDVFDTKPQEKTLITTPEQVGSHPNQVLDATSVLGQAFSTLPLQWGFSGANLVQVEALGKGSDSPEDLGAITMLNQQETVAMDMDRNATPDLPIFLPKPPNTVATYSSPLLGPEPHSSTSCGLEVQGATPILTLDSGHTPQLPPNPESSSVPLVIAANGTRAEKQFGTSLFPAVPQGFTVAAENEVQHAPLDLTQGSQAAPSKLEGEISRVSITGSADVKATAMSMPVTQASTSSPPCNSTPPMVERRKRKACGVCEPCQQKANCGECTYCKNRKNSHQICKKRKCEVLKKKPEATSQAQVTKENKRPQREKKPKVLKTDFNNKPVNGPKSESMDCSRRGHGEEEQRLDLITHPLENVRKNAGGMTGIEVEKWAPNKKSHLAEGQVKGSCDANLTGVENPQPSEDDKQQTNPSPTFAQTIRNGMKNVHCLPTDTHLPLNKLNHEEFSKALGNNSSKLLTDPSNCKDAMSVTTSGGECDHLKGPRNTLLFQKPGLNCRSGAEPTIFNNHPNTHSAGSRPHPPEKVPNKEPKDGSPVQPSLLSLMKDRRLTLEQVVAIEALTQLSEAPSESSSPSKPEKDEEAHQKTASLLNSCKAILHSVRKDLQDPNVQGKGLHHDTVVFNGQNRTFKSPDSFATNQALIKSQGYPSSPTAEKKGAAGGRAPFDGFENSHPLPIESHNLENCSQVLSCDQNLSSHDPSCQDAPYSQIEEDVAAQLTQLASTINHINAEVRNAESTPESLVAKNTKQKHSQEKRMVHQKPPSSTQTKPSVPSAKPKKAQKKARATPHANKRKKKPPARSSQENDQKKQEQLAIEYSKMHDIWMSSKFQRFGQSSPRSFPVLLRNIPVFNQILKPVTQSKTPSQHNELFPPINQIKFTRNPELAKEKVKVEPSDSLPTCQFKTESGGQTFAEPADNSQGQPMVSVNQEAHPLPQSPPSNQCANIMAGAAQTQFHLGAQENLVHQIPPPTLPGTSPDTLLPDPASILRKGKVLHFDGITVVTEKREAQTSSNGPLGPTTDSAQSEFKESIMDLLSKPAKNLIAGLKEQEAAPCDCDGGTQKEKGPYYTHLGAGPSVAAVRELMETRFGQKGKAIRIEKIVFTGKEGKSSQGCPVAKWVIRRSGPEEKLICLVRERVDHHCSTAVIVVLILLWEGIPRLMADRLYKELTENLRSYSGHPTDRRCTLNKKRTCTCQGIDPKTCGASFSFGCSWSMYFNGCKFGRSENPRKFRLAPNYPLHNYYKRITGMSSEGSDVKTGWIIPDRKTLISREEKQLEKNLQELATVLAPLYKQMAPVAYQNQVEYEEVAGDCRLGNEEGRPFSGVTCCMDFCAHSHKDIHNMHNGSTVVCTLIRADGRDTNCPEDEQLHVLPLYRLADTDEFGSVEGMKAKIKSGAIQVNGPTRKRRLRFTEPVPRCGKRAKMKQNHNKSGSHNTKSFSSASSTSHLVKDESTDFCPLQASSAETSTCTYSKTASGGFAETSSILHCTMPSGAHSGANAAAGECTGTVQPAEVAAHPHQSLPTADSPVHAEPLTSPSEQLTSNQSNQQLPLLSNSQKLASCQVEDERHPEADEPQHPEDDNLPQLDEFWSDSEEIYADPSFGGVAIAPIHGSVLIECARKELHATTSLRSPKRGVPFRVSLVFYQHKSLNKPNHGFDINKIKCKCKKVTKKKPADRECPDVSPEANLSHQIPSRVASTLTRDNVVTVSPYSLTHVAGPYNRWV

No constants are given. Whether binding was seen depends on the method and setting. In cells and extracts the contact can be indirect. Some results given as binding are weak or reduced against the parent protein; the word gives no strength.

This assay concerns the target Ten-eleven translocation protein 1 (mouse (endogenous in SmoA1-MB tumor tissue)) (UniProt Q3URK3). Nature of the assay: co-IP; SmoA1-MB tumor tissue lysate (20 mM Tris pH 7.4, 150 mM NaCl, 0.5% Triton X-100, 1 mM EDTA, 10% glycerol); 1 mg supernatant incubated with anti-Tet1 (GeneTex) or control IgG overnight at 4 °C, Protein-G beads 4 h at 4 °C; immunoblot. A general note: A western blot detects proteins with antibodies after separation by electrophoresis.

B1: NANOG (protein, UniProt Q80Z64 1-305)
chain: MSVGLPGPHSLPSSEEASNSGNASSMPAVFHPENYSCLQGSATEMLCTEAASPRPSSEDLPLQGSPDSSTSPKQKLSSPEADKGPEEEENKVLARKQKMRTVFSQAQLCALKDRFQKQKYLSLQQMQELSSILNLSYKQVKTWFQNQRMKCKRWQKNQWLKTSNGLIQKGSAPVEYPSIHCSYPQGYLVNASGSLSMWGSQTWTNPTWSSQTWTNPTWNNQTWTNPTWSSQAWTAQSWNGQPWNAAPLHNFGEDFLQPYVQLQQNFSASDLEVNLEATRESHAHFSTPQALELFLNYSVTPPGEI
On to B1, for which the binding entry is “binds”.
